Where a name gives a salt, the structure may show the parent alone. The list shows a part of the results. Single values of this set are uncertain.
What follows are molecules tested on Peyronie's disease tunica albuginea primary fibroblasts (assay: inhibition of TGF-beta1-induced alpha-SMA expression (myofibroblast transformation), relative to TGF-beta1-only and untreated controls; higher = stronger inhibition of myofibroblast transformation). Conditions: 10 µM; TGF-beta1 10 ng/mL; 72 h.
In the case of `Cc1nc(Nc2ncc(C(=O)Nc3c(C)cccc3Cl)s2)cc(N2CCN(CCO)CC2)n1` [Dasatinib Monohydrate], the “inhibition of TGF-beta1-induced alpha-SMA expression” value (shortened to “inhibition”) is reported as over 100%.
`Cc1nc(Nc2ncc(C(=O)Nc3c(C)cccc3Cl)s2)cc(N2CCN(CCO)CC2)n1` [Dasatinib hydrochloride] was tested, and the “inhibition” value was 93.7%.
In the case of `Cc1nc(Nc2ncc(C(=O)Nc3c(C)cccc3Cl)s2)cc(N2CCN(CCO)CC2)n1` [Dasatinib], the “inhibition” value is reported as over 100%.
`CCCCN1CCCCC1C(=O)Nc1c(C)cccc1C` (configuration not stated) [Bupivacaine HCl] was tested, and the “inhibition” value was 27.1%.
With `CO/N=C1\C[C@]2(C[C@@H]3C[C@@H](C/C=C(\C)C[C@@H](C)/C=C/C=C4\CO[C@@H]5[C@H](O)C(C)=C[C@@H](C(=O)O3)[C@]45O)O2)O[C@H](/C(C)=C/C(C)C)[C@H]1C` [Moxidectin] the “inhibition” value was 57.5%.
In the case of `C=C1/C(=C\C=C2/CCC[C@]3(C)[C@@H]([C@H](C)/C=C/[C@H](C)C(C)C)CC[C@@H]23)C[C@@H](O)C[C@@H]1O` [Doxercalciferol], the “inhibition” value is reported as -47.3%.
With `CC(C)(C)c1ccc(C(O)CCCN2CCC(C(O)(c3ccccc3)c3ccccc3)CC2)cc1` (configuration not stated) [Terfenadine] the “inhibition” value was 90.5%.
With `COc1cc(NC(C)CCCN)c2ncccc2c1` (configuration not stated) [Primaquine Diphosphate] the “inhibition” value was 13.5%.
For `CC(=O)CC/C=C(\C)CC/C=C(\C)CC/C=C(\C)CCC=C(C)C` [Teprenone], the “inhibition” value was 19.1%.
For `CC/C(=C(/CC)c1ccc(O)cc1)c1ccc(O)cc1` [Diethylstilbestrol], the “inhibition” value was -15%.
`CC1=C(/C=C/C(C)=C/C=C/C(C)=C\C(=O)O)C(C)(C)CCC1` [Isotretinoin] was tested, and the “inhibition” value was -39.5%.
With `CSc1ccc2c(c1)N(CCC1CCCCN1C)c1ccccc1S2` (configuration not stated) [Thioridazine hydrochloride] the “inhibition” value was 80.1%.
With `Cc1cc(-c2ccccc2)nnc1NCCN1CCOCC1` [Minaprine dihydrochloride] the “inhibition” value was over 100%.
For `NC(N)=Nc1nc(CSCC/C(N)=N/S(N)(=O)=O)cs1` [Famotidine], the “inhibition” value was 17.1%.
`CCCCCCCCCCCCCCCCOc1nc2ccc(C)cc2c(=O)o1` [Cetilistat] was tested, and the “inhibition” value was 10.4%.
For `CN(C)[C@@H]1C(O)=C(C(N)=O)C(=O)[C@@]2(O)C(O)=C3C(=O)c4c(O)cccc4[C@@](C)(O)[C@H]3[C@H](O)[C@@H]12` [Oxytetracycline Dihydrate], the “inhibition” value was -8.86%.
With `CN(C)[C@@H]1C(O)=C(C(N)=O)C(=O)[C@@]2(O)C(O)=C3C(=O)c4c(O)cccc4[C@@](C)(O)[C@H]3[C@H](O)[C@@H]12` [Oxytetracycline (Terramycin)] the “inhibition” value was 13.4%.
`COc1cc(OC)c(/C=C/S(=O)(=O)Cc2ccc(OC)c(NCC(=O)O)c2)c(OC)c1` was tested, and the “inhibition” value was 95.7%.
In the case of `CCCCCCCCCCCCCCCCOP(=O)([O-])OCC[N+](C)(C)C` [Miltefosine], the “inhibition” value is reported as 2.06%.
`CN(C)c1ccc(O)c2c1C[C@H]1C[C@H]3[C@H](N(C)C)C(O)=C(C(N)=O)C(=O)[C@@]3(O)C(O)=C1C2=O` [Minocycline HCl] was tested, and the “inhibition” value was 37.5%.
In the case of `CSCCNc1nc(SCCC(F)(F)F)nc2c1ncn2[C@@H]1O[C@H](COP(=O)(O)OP(=O)(O)C(Cl)(Cl)P(=O)(O)O)[C@@H](O)[C@H]1O` [Cangrelor Tetrasodium], the “inhibition” value is reported as 44.7%.
For `C[N+](C)(C)CCOC(=O)CCC(=O)OCC[N+](C)(C)C` [Succinylcholine Chloride Dihydrate], the “inhibition” value was 6.34%.
In the case of `O=C(O)CCCC[C@@H]1CCSS1` (racemic) [Thioctic acid], the “inhibition” value is reported as 12.1%.
`Nc1nc(NC2CC2)c2ncn([C@H]3C=C[C@@H](CO)C3)c2n1` [Abacavir] was tested, and the “inhibition” value was -14.1%.
For `Nc1nc(NC2CC2)c2ncn([C@H]3C=C[C@@H](CO)C3)c2n1` [Abacavir sulfate], the “inhibition” value was -2.47%.
`CCOc1ccc2nc3cc(N)ccc3c(N)c2c1` [Ethacridine lactate monohydrate] was tested, and the “inhibition” value was over 100%.
In the case of `CN(Cc1cnc2nc(N)nc(N)c2n1)c1ccc(C(=O)N[C@@H](CCC(=O)O)C(=O)O)cc1` [Methotrexate disodium], the “inhibition” value is reported as 7.94%.
`CN(Cc1cnc2nc(N)nc(N)c2n1)c1ccc(C(=O)N[C@@H](CCC(=O)O)C(=O)O)cc1` [Methotrexate] was tested, and the “inhibition” value was -22.5%.
In the case of `CC(C)(C)CC(C)(C)c1ccc(O)c(Cc2ccc(Cl)cc2Cl)c1` [Clofoctol], the “inhibition” value is reported as 47.7%.
`CN1CCN(c2c(F)cc3c(=O)c(C(=O)O)cn4c3c2OCN4C)CC1` [Marbofloxacin] was tested, and the “inhibition” value was 22.6%.
In the case of `CCOC(=O)c1ccc(N)cc1` [Benzocaine], the “inhibition” value is reported as 4.88%.
For `CCOC(=O)c1ccc(N)cc1` [Benzocaine hydrochloride], the “inhibition” value was 4.45%.
For `CCN(CC)CCOC(=O)C(c1ccccc1)c1ccccc1` [Adiphenine HCl], the “inhibition” value was 19.2%.
`OC(CCCN1CCCCC1)(c1ccccc1)c1ccccc1` [Diphenidol HCl] was tested, and the “inhibition” value was -1.56%.
For `C[C@]12CC[C@@H]3c4ccc(OS(=O)(=O)O)cc4CC[C@H]3[C@@H]1CCC2=O` [Estropipate], the “inhibition” value was 40%.
In the case of `CCCCCCCCCCCC[N+](C)(C)CCOc1ccccc1` [Domiphen Bromide], the “inhibition” value is reported as over 100%.
In the case of `CC(O)c1ccc(S(=O)(=O)NC(=O)NC2CCCCC2)cc1` (configuration not stated) [Hydroxyhexamide], the “inhibition” value is reported as 11%.
For `Cc1ccc(-n2nc(C(C)(C)C)cc2NC(=O)Nc2ccc(OCCN3CCOCC3)c3ccccc23)cc1` [Doramapimod (BIRB 796)], the “inhibition” value was 18.1%.
With `Cc1cc(-c2ccc(/N=N/c3ccc4c(S(=O)(=O)O)cc(S(=O)(=O)O)c(N)c4c3O)c(C)c2)ccc1/N=N/c1ccc2c(S(=O)(=O)O)cc(S(=O)(=O)O)c(N)c2c1O` [Evans Blue] the “inhibition” value was 7.3%.
In the case of `CN(C)Cc1ccc(S(=O)(=O)n2ccc(/C=C/C(=O)NO)c2)cc1` [Resminostat], the “inhibition” value is reported as over 100%.
`CC[C@H](C)C[C@H](C)CCCCCCCCC(=O)N[C@H]1C[C@@H](O)[C@@H](NCCN)NC(=O)[C@@H]2[C@@H](O)CCN2C(=O)[C@H]([C@H](O)CCN)NC(=O)[C@H]([C@H](O)[C@@H](O)c2ccc(O)cc2)NC(=O)[C@@H]2C[C@@H](O)CN2C(=O)[C@H]([C@@H](C)O)NC1=O` [Caspofungin Acetate] was tested, and the “inhibition” value was 29.1%.
`CN(C)CC/C=C1/c2ccccc2COc2ccc(CC(=O)O)cc21` [Olopatadine HCl] was tested, and the “inhibition” value was -13%.
For `CC(C(=O)O)c1ccc(C(=O)c2ccccc2)s1` (configuration not stated) [Tiaprofenic acid], the “inhibition” value was 34.5%.
`O=C1CCCC(=O)C1C(=O)c1ccc(C(F)(F)F)cc1[N+](=O)[O-]` [Nitisinone] was tested, and the “inhibition” value was -5.84%.
`C=CC(=O)Nc1cccc(Oc2nc(Nc3ccc(N4CCN(C)CC4)cc3)nc3ccsc23)c1` was tested, and the “inhibition” value was over 100%.
In the case of `C[C@H](NC(=O)C(=O)Nc1ccccc1C(C)(C)C)C(=O)N[C@@H](CC(=O)O)C(=O)COc1c(F)c(F)cc(F)c1F` [Emricasan], the “inhibition” value is reported as 11.4%.
In the case of `CC(=O)N(CC(O)CN(C(C)=O)c1c(I)c(C(=O)NCC(O)CO)c(I)c(C(=O)NCC(O)CO)c1I)c1c(I)c(C(=O)NCC(O)CO)c(I)c(C(=O)NCC(O)CO)c1I` (configuration not stated) [Iodixanol], the “inhibition” value is reported as 22.6%.
For `CC(=O)OCC(=O)[C@H]1CC[C@H]2[C@@H]3CCC4=CC(=O)CC[C@]4(C)[C@H]3CC[C@]12C` [Deoxycorticosterone acetate], the “inhibition” value was 51.1%.
In the case of `C#C[C@]1(O)CC[C@H]2[C@@H]3CCC4=CC(=O)CC[C@@H]4[C@H]3CC[C@@]21CC` [Levonorgestrel], the “inhibition” value is reported as 31.4%.
For `N=C(N)NCCN1CCCCCCC1` [Guanethidine Monosulfate], the “inhibition” value was -5.53%.
For `N=C(N)NCCN1CCCCCCC1` [Guanethidine Sulfate], the “inhibition” value was 6.05%.
For `CC1(C)[C@@H](OC(=O)CCC(=O)O)CC[C@]2(C)[C@H]3C(=O)C=C4[C@@H]5C[C@@](C)(C(=O)O)CC[C@]5(C)CC[C@@]4(C)[C@]3(C)CC[C@@H]12` [Carbenoxolone Sodium], the “inhibition” value was -9.92%.
With `CC(CN(C)C)CN1c2ccccc2Sc2ccccc21` (configuration not stated) [Alimemazine Tartrate] the “inhibition” value was 87.7%.
`C[C@@H]1COC(Nc2ccc3ncnc(Nc4ccc(OCc5nccs5)c(Cl)c4)c3c2)=N1` [Varlitinib] was tested, and the “inhibition” value was 53.9%.
In the case of `C[C@]1(Cn2ccnn2)[C@H](C(=O)O)N2C(=O)C[C@H]2S1(=O)=O` [Tazobactam], the “inhibition” value is reported as 13.9%.
With `CC[C@@H](CO)NCCN[C@@H](CC)CO` [Ethambutol 2HCl] the “inhibition” value was 5.44%.
For `CC(C)C[C@H](NC(=O)CNC(=O)c1cc(Cl)ccc1Cl)B1OC(=O)C(CC(=O)O)(CC(=O)O)O1` [Ixazomib Citrate (MLN9708)], the “inhibition” value was over 100%.
For `CCN(CC)CCOCCOC(=O)C(CC)(CC)c1ccccc1` [Oxeladin Citrate], the “inhibition” value was 6.66%.
In the case of `CCCOc1ccc(C(=O)OCCN(CC)CC)cc1N` [Proparacaine HCl], the “inhibition” value is reported as 3.84%.
`COC(=O)Nc1nc2cc([S+]([O-])c3ccccc3)ccc2[nH]1` (configuration not stated) [Oxfendazole] was tested, and the “inhibition” value was 13.8%.
With `COc1ccccc1OCC(O)COC(N)=O` (configuration not stated) [Methocarbamol] the “inhibition” value was 15.2%.
For `Nc1ccn([C@@H]2CS[C@H](CO)O2)c(=O)n1` [Lamivudine], the “inhibition” value was 47.2%.
For `CCc1c(Cl)c(O)c(Cl)c(O)c1C(=O)O[C@H]1[C@H](O)[C@H](OC)[C@H](OC/C2=C\C=C\C[C@H](O)/C(C)=C/[C@H](CC)[C@@H](O[C@@H]3OC(C)(C)[C@@H](OC(=O)C(C)C)[C@H](O)[C@@H]3O)/C(C)=C/C(C)=C/C[C@@H]([C@@H](C)O)OC2=O)O[C@@H]1C` [Fidaxomicin], the “inhibition” value was 20.6%.
For `CO/N=C(\C(=O)N[C@@H]1C(=O)N2C(C(=O)OC(C)OC(C)=O)=C(COC(N)=O)CS[C@H]12)c1ccco1` (some centres not stated) [Cefuroxime axetil], the “inhibition” value was -9.25%.
For `NC(=O)[C@@H]1CCCN1C(=O)[C@H](Cc1c[nH]cn1)NC(=O)[C@@H]1CCC(=O)N1` [Protirelin], the “inhibition” value was -35.2%.
For `CN(C)CC(c1ccc(O)cc1)C1(O)CCCCC1` (configuration not stated) [Desvenlafaxine Succinate], the “inhibition” value was -34.1%.
With `CN(C)CC(c1ccc(O)cc1)C1(O)CCCCC1` (configuration not stated) [Desvenlafaxine] the “inhibition” value was -22.8%.

Reference: the supplement of paper PMC9744312
